# From patent US20230052369A1
# Columns and labels:
# [1] = target: SEC-purified Cyno 4-1BB-His (cynomolgus); test: SPR, Ab captured, cyno 4-1BB-His injected
# [2] = target: purified human monomeric 4-1BB (human); test: SPR
binding [1],binding [2],Binder
binds,–,"v20023 (antibody, human IgG1, kappa, L234A L235A, V domains shown) VH: EVQLVESGGGLVKPGGSRKLSCAASGFTFSEFGMHWVRQAPDKGLKWVAYISSGGSTIYYADTVKGRFTISRDNAKNTLFLQMTSLRSEDTAMYYCARDWVDYWGQGTTLTVSS VL: NIVMTQSPKSMSMSVGERVTLSCKASENVGSYVSWYQQKPEKSPKLLIYGASNRYTGVPDRFTGSGSATDFTLTISSVQAEDLADYHCGQSYSYPLTFGAGTKLELKR"
–,binds,"v28700 (antibody, human IgG1, kappa, L234A L235A, V domains shown) VH: QVQLQESGPGLVKPSETLSLTCTVSGFSLISYGVHWVRQPPGKGLEWLGVIWSGGSTDYNPSLKSRVTISKDTSKNQFSLKLSSVTAADTAVYYCARNPLTATVMDYWGQGTLVTVSS VL: DIQMTQSPSSLSASVGDRVTITCRASQNVGTNVAWYQQKPGKAPKALIYSASYRDSGVPSRFSGSGSGTDFTLTISSLQPEDFATYYCQQYNSYPLTFGGGTKVEIKR"
–,binds,"v28689 (antibody, human IgG1, kappa, L234A L235A, V domains shown) VH: EVQLVESGGGLVQPGGSLRLSCAASGFTFSEFGMHWVRQAPGKGLEWVAYISSGGSTIYYADSVKGRFTISRDNAKNSLYLQMNSLRAEDTAVYYCARDWVDYWGQGTLLTVSS VL: EIVMTQSPATLSLSPGERVTLSCKASENVGSYVSWYQQKPGQAPRLLIYGASNRYTGVPARFSGSGSGTDFTLTISSVEPEDFAVYYCGQSYSYPLTFGGGTKLELKR"
–,binds,"v28694 (antibody, human IgG1, kappa, L234A L235A, V domains shown) VH: EVQLVESGGGLVQPGGSLRLSCAASGFTFSEFGMHWVRQAPGKGLEWVAYISSGGSTIYYADSVKGRFTISRDNAKNSLYLQMNSLRAEDTAMYYCARDWVDYWGQGTLLTVSS VL: EIVMTQSPATLSLSPGERVTLSCKASENVGSYVSWYQQKPGQAPRLLIYGASNRYTGVPARFSGSGSGTDFTLTISSVEPEDLAVYYCGQSYSYPLTFGGGTKLELKR"
–,binds,"v28692 (antibody, human IgG1, kappa, L234A L235A, V domains shown) VH: EVQLVESGGGLVQPGGSLRLSCAASGFTFSEFGMHWVRQAPGKGLEWVAYISSGGSTIYYADSVKGRFTISRDNAKNSLYLQMNSLRAEDTAMYYCARDWVDYWGQGTLLTVSS VL: EIVLTQSPATLSLSPGERATLSCKASENVGSYVSWYQQKPGQAPRLLIYGASNRYTGVPARFSGSGSGTDFTLTISSLEPEDFAVYYCGQSYSYPLTFGGGTKVEIKR"
–,binds,"v28693 (antibody, human IgG1, kappa, L234A L235A, V domains shown) VH: EVQLVESGGGLVQPGGSLRLSCAASGFTFSEFGMHWVRQAPGKGLEWVAYISSGGSTIYYADSVKGRFTISRDNAKNSLYLQMNSLRAEDTAMYYCARDWVDYWGQGTLLTVSS VL: EIVMTQSPATLSLSPGERVTLSCKASENVGSYVSWYQQKPGQAPRLLIYGASNRYTGVPARFSGSGSGTDFTLTISSVEPEDFAVYYCGQSYSYPLTFGGGTKLELKR"
–,binds,"v28690 (antibody, human IgG1, kappa, L234A L235A, V domains shown) VH: EVQLVESGGGLVQPGGSLRLSCAASGFTFSEFGMHWVRQAPGKGLEWVAYISSGGSTIYYADSVKGRFTISRDNAKNSLYLQMNSLRAEDTAVYYCARDWVDYWGQGTLLTVSS VL: EIVMTQSPATLSLSPGERVTLSCKASENVGSYVSWYQQKPGQAPRLLIYGASNRYTGVPARFSGSGSGTDFTLTISSVEPEDLAVYYCGQSYSYPLTFGGGTKLELKR"
–,binds,"v28691 (antibody, human IgG1, kappa, L234A L235A, V domains shown) VH: EVQLVESGGGLVQPGGSLRLSCAASGFTFSEFGMHWVRQAPGKGLEWVAYISSGGSTIYYADSVKGRFTISRDNAKNSLYLQMNSLRAEDTAMYYCARDWVDYWGQGTLLTVSS VL: EIVLTQSPATLSLSPGERATLSCKASENVGSYVSWYQQKPGQAPRLLIYGASNRYTGIPARFSGSGSGTDFTLTISSLEPEDFAVYYCGQSYSYPLTFGGGTKVEIKR"
binds,–,"v20022 (antibody, human IgG1, kappa, L234A L235A, V domains shown) VH: QVQLKESGPGLVAPSQSLSITCTVSGFSLTTYAISWVRQPPGKGLEWLGIIWPGGGTNYNSALKSRLSISKDNSRSQVFLKMNSLQTDDTARYYCARGAGTWYFDVWGAGTTVTVSS VL: DIQMTQSTSSLSASVGDRVTISCSASQGISNYLNWYQQKPDGTVKLLIYYTSSLHSGVPSRFSGSGSGTDYSLTISNLEPEDIATYYCQQYSKFPWTFGGGTKLEIKR"

# Results are given in words; binding and its absence hold for the method and conditions named. Binding calls can cover weak binding; strength is not graded here.
